# Hit rate of the full screen: of about 360,000 compounds, about 1,700 (0.47%) were called active. This list was built around the results that the source calls inconclusive (neither active nor inactive); the mix of calls is not that of the screen. Calls come from the whole dose curve; as a rule, active = well fitted inhibition curve with a large enough effect; inconclusive = small, poorly fitted or top-dose-only effect; inactive = no such curve, though single readings can be large or run the other way. Where the call is inconclusive, the potency comes from a doubtful curve fit.
# The chains behind the UniProt entries cited, without tags or fusion partners.
# UniProt Q14191, whole entry, looked up: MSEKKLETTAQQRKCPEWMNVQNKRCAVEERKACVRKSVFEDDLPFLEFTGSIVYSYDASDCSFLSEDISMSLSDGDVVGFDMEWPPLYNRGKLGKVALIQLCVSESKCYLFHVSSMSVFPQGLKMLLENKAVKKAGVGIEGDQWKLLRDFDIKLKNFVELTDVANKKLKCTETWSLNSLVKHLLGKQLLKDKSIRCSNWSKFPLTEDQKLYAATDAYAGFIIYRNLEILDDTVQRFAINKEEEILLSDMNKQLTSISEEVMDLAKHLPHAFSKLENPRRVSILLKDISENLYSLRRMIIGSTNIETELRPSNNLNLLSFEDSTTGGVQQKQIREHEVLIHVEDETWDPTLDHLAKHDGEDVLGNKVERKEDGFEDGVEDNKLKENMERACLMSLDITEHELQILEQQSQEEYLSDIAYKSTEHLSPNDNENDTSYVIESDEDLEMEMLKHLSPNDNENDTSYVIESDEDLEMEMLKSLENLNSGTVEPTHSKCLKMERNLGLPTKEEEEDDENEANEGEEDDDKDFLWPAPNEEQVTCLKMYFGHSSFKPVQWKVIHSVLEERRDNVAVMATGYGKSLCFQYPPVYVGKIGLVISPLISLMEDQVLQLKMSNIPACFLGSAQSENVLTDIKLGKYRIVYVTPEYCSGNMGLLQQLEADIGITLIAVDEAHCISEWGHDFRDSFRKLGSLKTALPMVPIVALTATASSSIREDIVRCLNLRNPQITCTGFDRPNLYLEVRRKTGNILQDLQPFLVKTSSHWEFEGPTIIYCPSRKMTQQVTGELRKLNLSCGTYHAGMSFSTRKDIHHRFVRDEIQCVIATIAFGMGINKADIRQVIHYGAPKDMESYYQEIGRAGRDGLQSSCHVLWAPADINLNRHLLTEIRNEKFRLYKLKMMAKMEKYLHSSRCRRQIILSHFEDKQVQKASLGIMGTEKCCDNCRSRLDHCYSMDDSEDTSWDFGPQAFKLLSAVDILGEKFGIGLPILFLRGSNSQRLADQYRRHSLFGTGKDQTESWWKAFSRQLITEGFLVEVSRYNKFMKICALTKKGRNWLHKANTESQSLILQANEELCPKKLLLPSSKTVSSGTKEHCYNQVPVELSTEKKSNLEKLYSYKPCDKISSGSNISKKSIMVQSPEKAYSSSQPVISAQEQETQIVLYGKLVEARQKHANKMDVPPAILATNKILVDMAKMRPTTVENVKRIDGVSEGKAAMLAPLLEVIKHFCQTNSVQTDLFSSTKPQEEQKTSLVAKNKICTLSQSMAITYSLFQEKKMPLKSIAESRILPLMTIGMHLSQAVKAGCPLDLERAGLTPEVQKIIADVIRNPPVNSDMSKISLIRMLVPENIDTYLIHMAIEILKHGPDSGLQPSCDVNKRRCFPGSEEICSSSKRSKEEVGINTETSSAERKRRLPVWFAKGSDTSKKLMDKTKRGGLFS
# Molecular target: Bifunctional 3'-5' exonuclease/ATP-dependent helicase WRN (Homo sapiens) (UniProt Q14191)
# Experiment: qHTS for Inhibitors of WRN Helicase; note: nearly all actives have a fitted effect of over 55% in size
# Conditions: WRN helicase unwinding, fluorescent forked duplex, kinetic; activity change, negative = inhibition: at 114 µM (top of the series) unless noted
# How it was run: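 Kinetic fluorescence helicase assay: unwinding of a quenched forked DNA duplex (100 nM final) with 2 mM ATP final raises red fluorescence (525/598 nm). Compounds sat 15 min at room temperature with 20 nM WRN beforehand.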
# % is set by controls: 0 for no effect and ±100 for the full control effect; potency is the fitted concentration of half-maximal effect.
SMILES,"activity change, negative = inhibition",Potency
CCOC(=O)c1[nH]c2ccccc2c1NC(C)=O,inactive: 0.149%,
Cn1cccc1-c1cc(C(=O)N/N=C/c2ccc(F)cc2)[nH]n1,,"inconclusive: 79.4 µM [inhibitor, single point]"
Cc1ccc(Oc2coc3cc(OC(=O)c4cccs4)ccc3c2=O)cc1,inactive: 19.8%,
CC1=C(C#N)C(=O)NC(=O)/C1=C/c1ccc(-c2ccc(S(N)(=O)=O)cc2)o1,,"inconclusive: 79.4 µM [inhibitor, partial curve]"
Cc1cc(NS(=O)(=O)c2ccc(Nc3nc(-c4ccc(C)c(C)c4)cs3)cc2)no1,,"inconclusive: 70.8 µM [inhibitor, partial curve]"
Cc1ccc(C)c(CSC2=NCCN2S(=O)(=O)c2ccccc2)c1,,"inconclusive: 50.1 µM [inhibitor, partial curve]"
Cc1c(C(=O)NCC2COc3ccccc3O2)oc2ccc(S(=O)(=O)N3CCOCC3)cc12 (stereo not given),inactive: 7.58%,
CC[n+]1c(/C=C2\Sc3ccccc3N2C)ccc2cccc(C)c21,,active: 50.1 µM
O=C(CN1C(=O)NC2(CCCCCCC2)C1=O)N1CCN(C(=O)c2ccco2)CC1,inconclusive: -39% [inhibitor] [at 57.1 µM],
O=C(O)CCc1ccc(-c2cccs2)n1NC(=O)c1ccc(Cl)cc1Cl,,"inconclusive: 50.1 µM [inhibitor, partial curve]"
CC1=NC(C(F)(F)F)(C(F)(F)F)C2=C(CC(C)(C)CC2=O)N1Cc1ccco1,inactive: -14%,
COc1ccccc1CCNC(=O)C1CCC(=O)N(Cc2cccc(F)c2)C1 (stereo not given),inactive: -4.11%,
Cc1cccc(NC(=S)NC(=O)/C=C/c2ccco2)n1,,"inconclusive: 56.2 µM [inhibitor, single point]"
Cc1ccc(/C=C/C(=O)N2CCN(c3ncccn3)CC2)o1,,"inconclusive: 50.1 µM [inhibitor, partial curve]"
CCc1ccc(O)c(N=Cc2ccccc2O)c1,inactive: -2.56%,
Nc1ccc(S(=O)(=O)Nc2nccs2)cc1N=Nc1ccccc1[N+](=O)[O-],,active: 25.1 µM
O=C(OCc1cc(=O)n2c(n1)sc1ccccc12)c1ccc(O)cc1O,inactive: -11.8% [at 57.1 µM],
Cn1c(=O)c2[nH]c(N=NNc3ccccc3F)nc2n(C)c1=O,inactive: -30%,
COc1ccc(NC(=O)/C(C#N)=C\c2ccc(OCc3ccc(C(=O)O)cc3)c(OC)c2)cc1,,active: 35.5 µM
N#C/C(=C\c1ccc(N2CCOCC2)o1)c1nc2ccccc2[nH]1,,active: 50.1 µM
O=S(=O)(Nc1cccc(-c2ccc3nncn3n2)c1)c1cccs1,,"inconclusive: 35.5 µM [inhibitor, single point]"
CC(NC(=O)c1ccccc1NS(=O)(=O)c1ccc(CCC(=O)O)cc1)c1ccccc1 (stereo not given),,"inconclusive: 70.8 µM [inhibitor, partial curve]"
CN1CCOC1c1ccc(C2OCCN2C)cc1 (stereo not given),,"inconclusive: 50.1 µM [inhibitor, partial curve]"
N#CC1=C(N)C2=C(N3CCCCC3)CCCC2C1(C#N)C#N (stereo not given),,"inconclusive: 44.7 µM [inhibitor, partial curve]"

SMILES,"activity change, negative = inhibition",Potency
O=C1c2cccc3c(O)ccc(c23)C(=O)N1Cc1ccco1,,"inconclusive: 79.4 µM [inhibitor, single point]"
O=C(O)c1cccc(S(=O)(=O)Nc2cccc(S(=O)(=O)N3CCCCCC3)c2)c1,inactive: 0.47% [at 11.6 µM],
O=C(O)c1ccc(Cl)c(NC(=S)NC(=O)c2cccc(COc3ccccc3)c2)c1,inactive: -15.3% [at 11.6 µM],
COc1ccc(N2CCN(CC(=O)NC(=O)NCc3ccco3)CC2)cc1,inactive: -25.5%,
COc1cc(/C=C2/S/C(=N/S(=O)(=O)c3ccccc3)NC2=O)c([N+](=O)[O-])cc1OC,,"inconclusive: 44.7 µM [inhibitor, partial curve]"
N#C/C(=C\c1ccccc1)C(=O)N1CCN(c2ccccc2F)CC1,inactive: -3.38%,
O=C(NCc1ccco1)c1cccnc1-c1nc2ccccc2s1,,"inconclusive: 56.2 µM [inhibitor, partial curve]"
CN(C)S(=O)(=O)c1cccc(C(=O)Nc2cc(Cl)ccc2O)c1,,"inconclusive: 50.1 µM [inhibitor, partial curve]"
O=C(O)c1cc(-c2ccc(/C=N/Nc3ccc([N+](=O)[O-])cn3)o2)ccc1Cl,,"inconclusive: 44.7 µM [inhibitor, partial curve]"
COc1ccc(Cc2nnc(NCCO)[nH]c2=O)cc1OC,,"inconclusive: 79.4 µM [inhibitor, single point]"
CCCc1[nH][nH]c(=O)c1C(c1ccccc1)C(C#N)C#N (stereo not given),inactive: -17%,
O=C(CCN1C(=O)/C(=C\C=C\c2ccccc2)SC1=S)Nc1cccc(C(=O)O)c1,,"inconclusive: 56.2 µM [inhibitor, partial curve]"
N#C/C(=C\c1ccc(C(=O)O)cc1)c1nc2sc3c(c2c(=O)[nH]1)CCCC3,,"inconclusive: 39.8 µM [inhibitor, full curve]"
CCc1c(C)[nH]n(-c2nc(-c3cccc([N+](=O)[O-])c3)cs2)c1=O,,"inconclusive: 112 µM [inhibitor, partial curve, poor fit]"
O=C(CSc1nnc2scc(-c3ccccc3)n12)Nc1nsc(-c2ccccc2)n1,,"inconclusive: 44.7 µM [inhibitor, partial curve]"
Cc1c(/C=N/NC(=O)c2ccccc2O)c2ccccn2c1C(=O)c1ccc(F)cc1,,"inconclusive: 56.2 µM [inhibitor, partial curve]"
CC1CCCN(CC(O)COc2ccc(-c3ccccc3)cc2)C1 (stereo not given),,"inconclusive: 89.1 µM [inhibitor, single point]"
Cc1ccc(NC(=O)CN2C(=O)S/C(=C\c3ccc(-c4cccc(C(=O)O)c4C)o3)C2=O)cc1C,,"inconclusive: 63.1 µM [inhibitor, partial curve, poor fit]"
O=C(COC(=O)C1Cc2ccccc2CN1C(=O)c1ccccc1)Nc1ccc(SC(F)F)cc1 (stereo not given),,"inconclusive: 31.6 µM [inhibitor, single point]"
COc1cc(/C=N/NC(N)=O)ccc1OCC(=O)Nc1ccc(C)c(C)c1,,"inconclusive: 31.6 µM [inhibitor, single point]"
C=CCc1cc(/C=C/c2nc(O)c([N+](=O)[O-])c(=O)[nH]2)cc(OC)c1O,,active: 44.7 µM
CC(=O)N(C)c1ccc(N=Cc2cc3c(cc2[N+](=O)[O-])OCO3)cc1,inactive: -3%,
Cn1cnnc1SCC(=O)Nc1ccc(Oc2ccccc2)cc1,,"inconclusive: 79.4 µM [inhibitor, single point]"
Cc1ccc(C(C[N+](=O)[O-])Sc2ccc(N)cc2)cc1 (stereo not given),,active: 44.7 µM

SMILES,"activity change, negative = inhibition",Potency
CCOC(=O)c1cnc(SCC(=O)Nc2nc(C)c(C)s2)nc1N,inactive: 3.48%,
CCOC(=O)C1CCCN(C(=O)c2cc(-c3ccco3)nc3ccccc23)C1 (stereo not given),,active: 31.6 µM
CC(=O)c1c(C)[nH]c(C(=O)OCC(=O)NNC(=O)c2ccc([N+](=O)[O-])cc2)c1C,inactive: -6.08%,
C=CCSC1=N/C(=C\c2cc(OCC)c(OC(C)=O)c([N+](=O)[O-])c2)C(=O)S1,inactive: 16.2%,
CNc1ccc(S(=O)(=O)NCC(=O)NCCCc2ccccc2)cc1[N+](=O)[O-],inactive: 9.5%,
Cc1nnc(NC(=O)CCSCCC(=O)Nc2nnc(C)s2)s1,,active: 50.1 µM
Cc1ccc(C)c(S(=O)(=O)Nc2cc(SCC(=O)O)c(O)c3ccccc23)c1,,active: 17.8 µM
Cc1cc(C)cc(NC(=O)CSc2nc(=O)n(CCCN3CCOCC3)c3c2CCCC3)c1,,"inconclusive: 89.1 µM [inhibitor, single point]"
CCCC1OC23CCCCC2C(C#N)(C#N)C1(C#N)C(=N)O3 (stereo not given),,"inconclusive: 14.1 µM [inhibitor, partial curve]"
Nc1nonc1-n1nnc(C(=O)N/N=C/c2ccccn2)c1-c1ccccc1,,"inconclusive: 89.1 µM [inhibitor, single point]"
Cc1cc(Cl)nc(-n2nc(C)cc2C)n1,,"inconclusive: 39.8 µM [inhibitor, single point]"
O=C(N[C@@H](Cc1ccccc1)C(=O)CCl)OCc1ccccc1,,"inconclusive: 2.67 µM [inhibitor, partial curve]"
CCC1CCCCN1C(=O)CSc1nc2c(c(=O)n1C)SC(C)C2 (stereo not given),,"inconclusive: 39.8 µM [inhibitor, full curve, poor fit]"
CC(C)CCNC(=O)CCc1nnc(COc2ccccc2)o1,,"inconclusive: 22.4 µM [inhibitor, single point]"
CC(C)CN1C(=O)/C(=C(/C#N)C(=O)NC2CCCCC2)c2ccccc21,inactive: 1.97% [at 57.1 µM],
O=C(O)CC/C(=N\Nc1ccc(S(=O)(=O)N2CCCC2)cc1[N+](=O)[O-])c1cccs1,,"inconclusive: 56.2 µM [inhibitor, partial curve]"
COc1ccc2c3c(ccc2c1)C(=O)/C(=C/O)CC3,,"inconclusive: 14.1 µM [inhibitor, full curve]"
COc1cccc(-c2nnc3sc(-c4ccco4)nn23)c1,inactive: -2.65%,
CCC(=O)Nc1ccc(C(=O)COC(=O)c2nc3nccc(C)n3n2)cc1,,"inconclusive: 56.2 µM [inhibitor, partial curve]"
Cn1nnnc1SCC1=C(C(=O)O)N2C(=O)[C@@H](NC(=O)[C@H](O)c3ccccc3)[C@H]2SC1,,active: 25.1 µM
CC(=O)Nc1ccc(-c2ccc(NC(C)=O)cc2)cc1,,"inconclusive: 39.8 µM [inhibitor, single point]"
CC(=O)c1cc(CN2CCC(C(=O)Nc3ccc(-n4nc(C)cc4C)cc3)CC2)cs1,,"inconclusive: 22.4 µM [inhibitor, full curve, poor fit]"

# 4 neighbouring records out of the list so far:
SMILES,"activity change, negative = inhibition",Potency
CCCC1OC23CCCCC2C(C#N)(C#N)C1(C#N)C(=N)O3 (stereo not given),,"inconclusive: 14.1 µM [inhibitor, partial curve]"
Nc1nonc1-n1nnc(C(=O)N/N=C/c2ccccn2)c1-c1ccccc1,,"inconclusive: 89.1 µM [inhibitor, single point]"
Cc1cc(Cl)nc(-n2nc(C)cc2C)n1,,"inconclusive: 39.8 µM [inhibitor, single point]"
O=C(N[C@@H](Cc1ccccc1)C(=O)CCl)OCc1ccccc1,,"inconclusive: 2.67 µM [inhibitor, partial curve]"
